# Experimental data from the supplement of paper PMC10849652.
# Protein sequences, listed by entry. Tags and fused reporters are not part of them. Lines headed by an entry give the natural chain unless they say otherwise; changes in a name come on top.
# UniProt Q9P000, whole entry, looked up: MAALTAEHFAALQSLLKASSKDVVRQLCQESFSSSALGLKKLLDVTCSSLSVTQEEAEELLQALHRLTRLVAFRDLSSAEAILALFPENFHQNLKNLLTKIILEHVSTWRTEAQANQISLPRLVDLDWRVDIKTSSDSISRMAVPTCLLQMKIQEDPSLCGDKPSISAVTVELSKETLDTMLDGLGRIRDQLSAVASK
# UniProt Q9UP83: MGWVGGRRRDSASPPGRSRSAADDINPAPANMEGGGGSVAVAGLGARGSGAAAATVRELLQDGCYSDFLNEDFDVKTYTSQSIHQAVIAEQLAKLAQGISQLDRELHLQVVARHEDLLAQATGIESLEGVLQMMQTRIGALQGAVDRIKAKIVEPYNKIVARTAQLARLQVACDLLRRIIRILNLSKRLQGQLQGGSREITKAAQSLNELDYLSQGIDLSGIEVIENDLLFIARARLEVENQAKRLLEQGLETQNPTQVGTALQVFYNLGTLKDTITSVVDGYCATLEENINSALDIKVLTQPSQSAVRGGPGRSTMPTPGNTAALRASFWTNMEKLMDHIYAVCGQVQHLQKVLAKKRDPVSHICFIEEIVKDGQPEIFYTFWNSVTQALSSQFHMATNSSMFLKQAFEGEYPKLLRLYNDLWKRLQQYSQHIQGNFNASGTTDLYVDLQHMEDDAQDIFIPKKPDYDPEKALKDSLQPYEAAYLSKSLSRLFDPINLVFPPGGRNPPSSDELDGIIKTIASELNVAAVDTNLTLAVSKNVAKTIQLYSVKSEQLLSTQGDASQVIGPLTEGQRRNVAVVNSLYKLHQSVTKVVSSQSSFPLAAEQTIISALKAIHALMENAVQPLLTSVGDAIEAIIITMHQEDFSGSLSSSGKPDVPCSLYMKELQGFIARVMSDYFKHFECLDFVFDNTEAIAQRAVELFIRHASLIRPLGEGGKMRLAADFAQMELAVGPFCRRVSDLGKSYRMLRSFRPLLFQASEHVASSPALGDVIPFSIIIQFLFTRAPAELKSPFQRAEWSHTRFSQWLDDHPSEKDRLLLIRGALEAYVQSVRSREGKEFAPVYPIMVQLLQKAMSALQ
# UniProt P13073, whole entry, looked up: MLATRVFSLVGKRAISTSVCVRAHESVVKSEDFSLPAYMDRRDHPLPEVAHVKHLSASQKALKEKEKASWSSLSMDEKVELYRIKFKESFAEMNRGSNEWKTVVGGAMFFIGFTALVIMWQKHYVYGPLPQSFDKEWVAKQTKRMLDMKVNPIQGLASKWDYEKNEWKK
# UniProt Q9NQ92: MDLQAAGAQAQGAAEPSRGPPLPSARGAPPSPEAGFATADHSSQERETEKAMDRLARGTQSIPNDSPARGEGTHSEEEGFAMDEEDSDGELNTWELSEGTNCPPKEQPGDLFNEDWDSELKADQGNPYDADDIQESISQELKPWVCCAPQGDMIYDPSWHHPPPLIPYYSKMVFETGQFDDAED
# UniProt P61201: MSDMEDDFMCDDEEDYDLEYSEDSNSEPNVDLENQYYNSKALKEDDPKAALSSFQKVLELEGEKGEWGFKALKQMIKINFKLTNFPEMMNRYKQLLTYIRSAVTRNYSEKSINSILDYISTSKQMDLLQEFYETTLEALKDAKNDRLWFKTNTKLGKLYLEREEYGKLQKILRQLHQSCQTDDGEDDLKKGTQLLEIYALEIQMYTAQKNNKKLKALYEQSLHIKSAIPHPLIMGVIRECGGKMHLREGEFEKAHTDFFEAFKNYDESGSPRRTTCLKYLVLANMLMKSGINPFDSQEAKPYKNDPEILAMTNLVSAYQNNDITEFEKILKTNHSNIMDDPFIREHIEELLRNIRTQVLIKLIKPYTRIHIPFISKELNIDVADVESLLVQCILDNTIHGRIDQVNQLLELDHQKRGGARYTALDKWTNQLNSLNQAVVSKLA
# UniProt Q9Y678: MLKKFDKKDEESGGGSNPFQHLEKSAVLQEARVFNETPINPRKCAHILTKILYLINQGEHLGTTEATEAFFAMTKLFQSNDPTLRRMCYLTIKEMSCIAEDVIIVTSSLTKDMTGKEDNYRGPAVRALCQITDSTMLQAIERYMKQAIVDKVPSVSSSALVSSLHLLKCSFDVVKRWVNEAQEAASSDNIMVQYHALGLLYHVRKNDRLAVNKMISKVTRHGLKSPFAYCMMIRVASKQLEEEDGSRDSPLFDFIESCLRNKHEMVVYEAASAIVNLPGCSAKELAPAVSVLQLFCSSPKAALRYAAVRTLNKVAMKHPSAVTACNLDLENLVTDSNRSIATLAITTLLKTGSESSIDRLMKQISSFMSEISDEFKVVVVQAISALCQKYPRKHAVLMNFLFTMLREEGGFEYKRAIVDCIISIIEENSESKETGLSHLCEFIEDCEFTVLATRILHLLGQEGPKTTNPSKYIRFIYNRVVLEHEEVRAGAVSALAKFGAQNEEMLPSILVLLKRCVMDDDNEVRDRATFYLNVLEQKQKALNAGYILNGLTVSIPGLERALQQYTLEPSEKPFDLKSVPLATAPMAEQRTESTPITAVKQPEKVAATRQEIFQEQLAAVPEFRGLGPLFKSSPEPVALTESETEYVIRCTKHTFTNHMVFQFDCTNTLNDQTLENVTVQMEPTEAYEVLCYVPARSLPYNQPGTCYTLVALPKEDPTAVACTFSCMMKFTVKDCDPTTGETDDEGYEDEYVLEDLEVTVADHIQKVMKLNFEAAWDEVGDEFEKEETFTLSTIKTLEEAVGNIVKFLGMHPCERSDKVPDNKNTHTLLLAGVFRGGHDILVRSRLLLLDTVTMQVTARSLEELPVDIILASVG
# UniProt Q9Y2B0: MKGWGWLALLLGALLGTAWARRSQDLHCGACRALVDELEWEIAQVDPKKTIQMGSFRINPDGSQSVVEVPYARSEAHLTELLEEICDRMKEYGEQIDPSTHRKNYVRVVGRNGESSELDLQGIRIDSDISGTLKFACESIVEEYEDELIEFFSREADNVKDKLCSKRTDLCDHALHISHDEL
# UniProt O75976: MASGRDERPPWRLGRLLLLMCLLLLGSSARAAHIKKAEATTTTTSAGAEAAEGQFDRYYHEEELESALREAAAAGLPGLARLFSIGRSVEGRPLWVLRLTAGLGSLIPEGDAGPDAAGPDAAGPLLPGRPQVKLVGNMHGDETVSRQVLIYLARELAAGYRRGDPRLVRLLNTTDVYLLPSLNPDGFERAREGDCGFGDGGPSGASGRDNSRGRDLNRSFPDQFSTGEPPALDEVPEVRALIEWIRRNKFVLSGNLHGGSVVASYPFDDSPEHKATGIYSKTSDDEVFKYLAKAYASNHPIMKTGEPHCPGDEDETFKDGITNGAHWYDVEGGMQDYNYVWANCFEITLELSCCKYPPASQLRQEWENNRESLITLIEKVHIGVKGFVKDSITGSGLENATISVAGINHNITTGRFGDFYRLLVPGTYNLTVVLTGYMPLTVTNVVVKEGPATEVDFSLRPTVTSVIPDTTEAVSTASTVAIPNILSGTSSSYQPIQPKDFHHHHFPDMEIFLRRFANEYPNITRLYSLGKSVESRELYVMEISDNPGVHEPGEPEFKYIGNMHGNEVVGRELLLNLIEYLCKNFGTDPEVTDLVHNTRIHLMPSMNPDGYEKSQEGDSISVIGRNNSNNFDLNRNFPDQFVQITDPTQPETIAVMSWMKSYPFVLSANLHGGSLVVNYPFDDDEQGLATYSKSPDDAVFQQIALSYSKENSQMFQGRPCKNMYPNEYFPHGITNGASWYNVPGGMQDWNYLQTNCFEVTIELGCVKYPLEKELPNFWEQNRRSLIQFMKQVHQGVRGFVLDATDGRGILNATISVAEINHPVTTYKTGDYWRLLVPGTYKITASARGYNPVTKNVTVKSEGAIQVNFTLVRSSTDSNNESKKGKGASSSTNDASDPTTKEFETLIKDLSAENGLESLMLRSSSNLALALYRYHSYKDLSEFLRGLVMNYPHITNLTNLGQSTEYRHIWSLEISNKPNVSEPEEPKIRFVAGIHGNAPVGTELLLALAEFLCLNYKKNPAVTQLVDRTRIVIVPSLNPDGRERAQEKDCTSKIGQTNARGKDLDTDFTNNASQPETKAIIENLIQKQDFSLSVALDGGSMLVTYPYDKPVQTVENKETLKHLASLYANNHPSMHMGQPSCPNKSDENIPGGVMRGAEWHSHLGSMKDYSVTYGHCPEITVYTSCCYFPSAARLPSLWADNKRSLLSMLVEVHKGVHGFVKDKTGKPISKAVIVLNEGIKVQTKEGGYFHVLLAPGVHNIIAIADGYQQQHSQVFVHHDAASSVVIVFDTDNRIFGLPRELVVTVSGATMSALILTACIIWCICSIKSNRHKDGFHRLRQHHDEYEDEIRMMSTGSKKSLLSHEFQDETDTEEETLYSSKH
# UniProt Q9ULM6, whole entry, looked up: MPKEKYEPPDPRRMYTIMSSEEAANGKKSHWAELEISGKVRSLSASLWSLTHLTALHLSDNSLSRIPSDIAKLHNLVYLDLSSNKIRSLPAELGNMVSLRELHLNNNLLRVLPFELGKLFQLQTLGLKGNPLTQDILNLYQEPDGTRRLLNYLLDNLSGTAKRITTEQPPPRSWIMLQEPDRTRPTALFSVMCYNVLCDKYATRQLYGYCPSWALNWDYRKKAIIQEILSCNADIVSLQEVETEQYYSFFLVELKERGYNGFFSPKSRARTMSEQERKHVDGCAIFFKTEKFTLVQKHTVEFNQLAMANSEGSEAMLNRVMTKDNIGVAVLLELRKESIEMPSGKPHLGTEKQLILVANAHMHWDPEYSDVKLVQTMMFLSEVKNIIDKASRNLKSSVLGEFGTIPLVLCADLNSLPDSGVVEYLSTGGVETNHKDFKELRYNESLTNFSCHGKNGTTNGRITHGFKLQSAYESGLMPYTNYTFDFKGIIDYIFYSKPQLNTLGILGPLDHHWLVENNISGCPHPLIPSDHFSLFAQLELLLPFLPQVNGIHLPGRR
# UniProt Q7KZN9: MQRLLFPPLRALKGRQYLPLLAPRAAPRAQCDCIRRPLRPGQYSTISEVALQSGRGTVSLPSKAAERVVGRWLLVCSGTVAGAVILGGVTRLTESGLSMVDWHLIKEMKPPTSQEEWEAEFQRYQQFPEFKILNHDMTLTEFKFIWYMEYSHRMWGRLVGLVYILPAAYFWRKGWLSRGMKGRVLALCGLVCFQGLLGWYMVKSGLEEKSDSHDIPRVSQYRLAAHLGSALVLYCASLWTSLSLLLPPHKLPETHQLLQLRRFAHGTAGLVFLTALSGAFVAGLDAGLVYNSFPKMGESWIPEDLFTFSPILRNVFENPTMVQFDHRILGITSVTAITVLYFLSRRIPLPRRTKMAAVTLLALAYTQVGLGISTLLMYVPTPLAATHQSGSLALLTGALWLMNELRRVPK
# UniProt P15954, whole entry, looked up: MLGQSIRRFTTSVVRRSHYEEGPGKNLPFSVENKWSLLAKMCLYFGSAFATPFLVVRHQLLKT
# UniProt Q9Y2V7: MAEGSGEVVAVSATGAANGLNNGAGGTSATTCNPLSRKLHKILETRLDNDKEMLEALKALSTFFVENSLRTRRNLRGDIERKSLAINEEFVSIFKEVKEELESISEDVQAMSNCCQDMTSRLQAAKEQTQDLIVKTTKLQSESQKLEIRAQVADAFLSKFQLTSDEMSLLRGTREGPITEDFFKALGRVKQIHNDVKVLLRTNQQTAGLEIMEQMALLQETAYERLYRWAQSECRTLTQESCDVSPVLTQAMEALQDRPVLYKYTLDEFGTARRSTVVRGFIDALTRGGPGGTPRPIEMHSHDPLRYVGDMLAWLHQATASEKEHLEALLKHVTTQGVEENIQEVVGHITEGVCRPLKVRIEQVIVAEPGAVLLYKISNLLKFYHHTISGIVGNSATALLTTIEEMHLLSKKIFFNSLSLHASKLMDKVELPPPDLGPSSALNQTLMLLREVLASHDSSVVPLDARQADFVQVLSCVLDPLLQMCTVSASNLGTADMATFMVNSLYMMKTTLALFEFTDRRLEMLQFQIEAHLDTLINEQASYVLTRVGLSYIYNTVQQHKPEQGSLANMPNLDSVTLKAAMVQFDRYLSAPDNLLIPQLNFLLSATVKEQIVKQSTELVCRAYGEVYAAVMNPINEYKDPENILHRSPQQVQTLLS
# UniProt Q96KP4: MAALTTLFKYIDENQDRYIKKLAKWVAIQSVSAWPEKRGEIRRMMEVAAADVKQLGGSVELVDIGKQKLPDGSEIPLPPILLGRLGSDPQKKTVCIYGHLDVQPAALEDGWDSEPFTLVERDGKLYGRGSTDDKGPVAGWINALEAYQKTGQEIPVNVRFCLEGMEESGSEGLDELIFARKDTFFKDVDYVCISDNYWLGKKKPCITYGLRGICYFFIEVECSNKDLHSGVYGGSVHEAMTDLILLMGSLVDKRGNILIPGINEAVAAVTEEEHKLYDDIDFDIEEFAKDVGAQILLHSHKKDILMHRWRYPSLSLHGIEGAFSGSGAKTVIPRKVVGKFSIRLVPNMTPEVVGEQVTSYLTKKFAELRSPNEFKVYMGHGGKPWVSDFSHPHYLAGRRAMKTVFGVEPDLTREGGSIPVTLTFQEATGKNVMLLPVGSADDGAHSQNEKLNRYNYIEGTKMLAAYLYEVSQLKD
# The list shows a part of the results.
# Experiments:
# Experiment in all cases: log2 fold change, soluble protein after heating vs DMSO (PISA); higher = thermal stabilisation; K562 lysate, 10 uM; active = over 0.2 and 3.5 SD of the protein, either way, in both replicates (recomputed)
# [1] = compound: CN1CC[C@H](c2c(O)cc(O)c3c(=O)cc(-c4ccccc4Cl)oc23)[C@H](O)C1 [alvocidib]
# Summary of the method: (§1)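 To prepare the extract, K562 pellets were dounce-homogenised in PBS pH 7.4 with 1 mM MgCl2, giving crude material at 1 mg/mL protein. This was treated with 10 μM compound for 30 min, then heated in aliquots for 3 min over 48°C-58°C before pooling and addition of NP-40 to 0.5% at 4°C. Centrifugation at 21,000xg for 90 min left soluble protein in the supernatant, which TMTpro 16plex LC-MS/MS quantified with equalised channel sums. Results are log-two fold changes in thermal stability compared with solvent controls, from duplicates.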
# [2] = compound: CN1CCc2c(c3ccccc3n2Cc2ccc(C(=O)NO)cc2)C1 [Tubastatin A]
# Summary of the method: as §1
# [3] = compound: CNC(=O)C1=CC=CC=C1NC2=NC(=NC=C2Cl)NC3=C(C=C(C=C3)N4CCOCC4)OC
# Summary of the method: as §1
# [4] = compound: CNC(=O)c1ccc(Nc2ncc(C(F)(F)F)c(NCc3nccnc3N(C)S(C)(=O)=O)n2)cc1 [defactinib]
# Summary of the method: as §1
# [5] = compound: CNc1nc(-c2ccc3c(N)n[nH]c3c2)cc(N2C[C@@H](C(=O)NC3CCCCC3)CC[C@H]2C)n1
# Summary of the method: as §1
# [6] = compound: COC(=O)N[C@@H](C)CNc1nccc(-c2cn(C(C)C)nc2-c2cc(Cl)cc(NS(C)(=O)=O)c2F)n1 [encorafenib]
# Summary of the method: as §1
# [7] = compound: COC(=O)[C@H](CCSC)NC(=O)C1=C(C=C(C=C1)NC[C@H](CS)N)C2=CC=CC=C2
# Summary of the method: as §1
# [8] = compound: COc1cc(Nc2ncc3c(n2)-c2ccc(Cl)cc2C(c2c(F)cccc2OC)=NC3)ccc1C(=O)O [alisertib]
# Summary of the method: as §1
# [9] = compound: COc1cc2nc(-c3cc(F)ccc3O)nc(N[C@@H]3CNC[C@H]3C(C)(C)O)c2cc1OC
# Summary of the method: as §1
# [10] = compound: COc1cc2ncnc(Nc3ccc(F)c(Cl)c3)c2cc1OCCCN1CCOCC1 [gefitinib]
# Summary of the method: as §1
# [11] = compound: CS(=O)(=O)CCNCc1ccc(-c2ccc3ncnc(Nc4ccc(OCc5cccc(F)c5)c(Cl)c4)c3c2)o1 [lapatinib]
# Summary of the method: as §1
# [12] = compound: CS(=O)(=O)N1CCN(Cc2cc3nc(-c4cccc5[nH]ncc45)nc(N4CCOCC4)c3s2)CC1 [pictilisib]
# Summary of the method: as §1
# [13] = compound: C[C@@H](Oc1cc(-c2cnn(C3CCNCC3)c2)cnc1N)c1c(Cl)ccc(F)c1Cl [crizotinib]
# Summary of the method: as §1
# [14] = compound: C[C@H](C1=CC=C(C=C1)C(=O)NC2=C3C=CNC3=NC=C2)N
# Summary of the method: as §1
# [15] = compound: C[C@H](Nc1ncnc2nc[nH]c12)c1cc2cccc(Cl)c2c(=O)n1-c1ccccc1 [duvelisib]
# Summary of the method: as §1
# [16] = compound: Cc1cc(Nc2cc(CN3CCOCC3)c3nc(C)c(Cc4ccc(Cl)cc4F)n3n2)n[nH]1 [gandotinib]
# Summary of the method: as §1
# [17] = compound: Cc1cc(Nc2cc(N3CCN(C)CC3)nc(Sc3ccc(NC(=O)C4CC4)cc3)n2)n[nH]1 [tozasertib]
# Summary of the method: as §1
# [18] = compound: Cc1ccc(-n2nc(C(C)(C)C)cc2NC(=O)Nc2ccc(OCCN3CCOCC3)c3ccccc23)cc1 [doramapimod]
# Summary of the method: as §1
# [19] = compound: Cc1ccc(NC(=O)c2ccc(CN3CC[C@H](N(C)C)C3)c(C(F)(F)F)c2)cc1Nc1nccc(-c2cncnc2)n1 [bafetinib]
# Summary of the method: as §1
# [20] = compound: Cc1cccc(CC(=O)N2CCc3c2ccc(-c2cn(C)c4ncnc(N)c24)c3F)n1
# Summary of the method: as §1
Target,log2 fold change [1],log2 fold change [2],log2 fold change [3],log2 fold change [4],log2 fold change [5],log2 fold change [6],log2 fold change [7],log2 fold change [8],log2 fold change [9],log2 fold change [10],log2 fold change [11],log2 fold change [12],log2 fold change [13],log2 fold change [14],log2 fold change [15],log2 fold change [16],log2 fold change [17],log2 fold change [18],log2 fold change [19],log2 fold change [20]
COMMD9 (UniProt Q9P000),inactive: 0.026,inactive: 0.079,inactive: 0.022,inactive: 0.14,inactive: 0.038,inactive: 0.036,inactive: -0.114,inactive: 0.079,inactive: -0.051,inactive: -0.133,inactive: 0.122,inactive: 0,inactive: 0.013,inactive: 0.092,inactive: 0.047,inactive: -0.044,inactive: -0.003,inactive: 0.015,inactive: 0.024,inactive: -0.086
COG5 isoform 2 (UniProt Q9UP83),inactive: 0.02,inactive: -0.051,inactive: 0.04,inactive: -0.005,inactive: -0.015,inactive: -0.025,inactive: -0.037,inactive: -0.012,inactive: -0.053,inactive: 0.027,inactive: -0.059,inactive: -0.03,inactive: -0.025,inactive: 0.027,inactive: 0.007,inactive: -0.071,inactive: 0.013,inactive: -0.024,inactive: -0.034,inactive: 0.062
COLGALT1 (UniProt Q8NBJ5),inactive: -0.021,inactive: -0.037,inactive: 0.016,inactive: 0.02,inactive: 0.008,inactive: 0.035,inactive: -0.018,inactive: -0.007,inactive: 0.021,inactive: 0.031,inactive: -0.023,inactive: -0.04,inactive: -0.012,inactive: -0.023,inactive: -0.016,inactive: 0.02,inactive: 0.026,inactive: 0.006,inactive: 0.002,inactive: 0.049
COX4I1 (UniProt P13073),inactive: -0.009,inactive: 0.046,inactive: 0.001,inactive: 0.006,inactive: 0.043,inactive: -0.002,inactive: -0.013,inactive: 0.032,inactive: 0.004,inactive: -0.051,inactive: -0.035,inactive: -0.048,inactive: 0.033,inactive: -0.058,inactive: -0.012,inactive: 0.061,inactive: -0.017,inactive: -0.022,inactive: -0.03,inactive: 0.016
COPRS (UniProt Q9NQ92),inactive: -0.119,inactive: 0.084,inactive: -0.036,inactive: 0.014,inactive: 0.006,inactive: 0.054,inactive: 0.06,inactive: -0.048,inactive: 0.036,inactive: -0.106,inactive: -0.065,inactive: 0.069,inactive: 0.002,inactive: -0.304,inactive: 0.038,inactive: 0.136,inactive: -0.001,inactive: 0.022,inactive: -0.064,inactive: 0.086
COPS2 isoform 2 (UniProt P61201),inactive: 0.025,inactive: 0.017,inactive: 0.01,inactive: -0.008,inactive: 0.006,inactive: 0.012,inactive: -0.014,inactive: -0.001,inactive: 0,inactive: 0.009,inactive: -0.044,inactive: -0.005,inactive: 0.034,inactive: 0.024,inactive: -0.002,inactive: -0.044,inactive: 0.017,inactive: -0.053,inactive: 0.004,inactive: -0.047
COPG1 (UniProt Q9Y678),inactive: -0.008,inactive: 0.011,inactive: -0.008,inactive: 0.007,inactive: 0.004,inactive: -0.001,inactive: -0.019,inactive: 0.004,inactive: 0.011,inactive: -0.017,inactive: 0.003,inactive: -0.005,inactive: -0.007,inactive: -0.003,inactive: 0.006,inactive: -0.017,inactive: -0.012,inactive: 0.004,inactive: -0.03,inactive: 0.011
COG8 (UniProt Q96MW5),inactive: 0.112,inactive: -0.11,inactive: 0.011,inactive: -0.068,inactive: -0.026,inactive: 0.044,inactive: -0.033,inactive: 0.024,inactive: -0.003,inactive: -0.048,inactive: 0.032,inactive: 0.012,inactive: -0.096,inactive: 0.041,inactive: -0.115,inactive: -0.193,inactive: 0.053,inactive: 0.019,inactive: -0.021,inactive: 0.064
CNPY2 (UniProt Q9Y2B0),inactive: -0.002,inactive: 0.026,inactive: 0.01,inactive: 0.007,inactive: -0.04,inactive: -0.014,inactive: -0.057,inactive: 0.01,inactive: 0.012,inactive: 0.056,inactive: 0.004,inactive: -0.04,inactive: 0.056,inactive: -0.003,inactive: 0.001,inactive: -0.002,inactive: -0.059,inactive: -0.023,inactive: 0.042,inactive: -0.015
CPD (UniProt O75976),inactive: -0.068,inactive: 0.096,inactive: 0.027,inactive: 0.022,inactive: 0.13,inactive: -0.023,inactive: -0.016,inactive: 0.039,inactive: 0.008,inactive: -0.011,inactive: -0.03,inactive: -0.032,inactive: 0.01,inactive: -0.146,inactive: 0,inactive: 0.096,inactive: -0.023,inactive: -0.012,inactive: 0.018,inactive: 0.101
CNOT6 (UniProt Q9ULM6),inactive: 0.016,inactive: -0.114,inactive: 0.024,inactive: 0.034,inactive: -0.039,inactive: 0.01,inactive: 0.132,inactive: -0.087,inactive: 0.177,inactive: -0.024,inactive: -0.144,inactive: -0.062,inactive: 0.008,inactive: -0.064,inactive: -0.009,inactive: -0.025,inactive: -0.072,inactive: 0.038,inactive: 0.015,inactive: -0.017
COX15 (UniProt Q7KZN9),inactive: -0.088,inactive: 0.075,inactive: 0.014,inactive: 0.042,inactive: 0.042,inactive: 0.005,inactive: -0.011,inactive: 0.014,inactive: -0.005,inactive: 0.014,inactive: 0.063,inactive: -0.002,inactive: -0.087,inactive: -0.194,inactive: 0.005,inactive: 0.074,inactive: -0.014,inactive: -0.024,inactive: -0.031,inactive: 0.05
COX7C (UniProt P15954),inactive: 0.154,inactive: 0.05,inactive: -0.016,inactive: 0.1,inactive: -0.061,inactive: -0.144,inactive: 0.321,inactive: 0.012,inactive: -0.093,inactive: -0.068,inactive: -0.038,inactive: 0.075,inactive: 0.001,inactive: 0.284,inactive: 0.018,inactive: -0.073,inactive: 0.031,inactive: 0.033,inactive: 0,inactive: -0.064
COG6 (UniProt Q9Y2V7),inactive: 0.026,inactive: -0.062,inactive: 0.059,inactive: -0.028,inactive: 0.059,inactive: -0.026,inactive: 0.034,inactive: 0.016,inactive: -0.017,inactive: 0.006,inactive: 0.012,inactive: -0.019,inactive: -0.104,inactive: -0.137,inactive: 0.014,inactive: -0.115,inactive: -0.011,inactive: 0.037,inactive: -0.071,inactive: 0.142
COQ7 (UniProt Q99807),inactive: -0.039,inactive: -0.051,inactive: -0.026,inactive: 0.003,inactive: -0.035,inactive: -0.046,inactive: 0.059,inactive: 0.018,inactive: 0.055,inactive: -0.064,inactive: -0.007,inactive: -0.008,inactive: -0.116,inactive: 0.013,inactive: 0.108,inactive: -0.072,inactive: 0.018,inactive: 0.04,inactive: 0,inactive: 0.094
CNDP2 (UniProt Q96KP4),inactive: -0.11,inactive: 0.039,inactive: 0.003,inactive: 0.005,inactive: 0.1,inactive: -0.02,inactive: 0.002,inactive: -0.031,inactive: 0.047,inactive: 0.013,inactive: -0.021,inactive: -0.017,inactive: -0.008,active: -0.255,inactive: 0.037,active: 0.244,inactive: -0.062,inactive: 0.001,inactive: -0.002,inactive: 0.212

# Just log2 fold change [1] and log2 fold change [13] (two entries from above):
Target	log2 fold change [1]	log2 fold change [13]
CNOT6 (UniProt Q9ULM6)	inactive: 0.016	inactive: 0.008
COX15 (UniProt Q7KZN9)	inactive: -0.088	inactive: -0.087
